Data: the supplement of paper PMC10727501
The other results are listed elsewhere or left out. Repeats in this data set agree poorly, so a single value says little.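 Free-swimming zebrafish larvae were scored for O-bend response probability to dark flashes (naive: first five; training: remaining flashes of four 60-flash blocks; test: later 60-flash block) and for turning toward alternating leftward/rightward LED motion (OMR). Six treated larvae were compared with sixty 0.1% DMSO controls; |SSMD|≥2 defined a hit.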

tested on: Danio rerio larvae (5 dpf, TLF); assay: OMR-Perf (SSMD vs DMSO vehicle); higher = higher than vehicle (e.g. higher dark-flash O-bend response probability, or better optomotor performance); conditions: 10 µM; pre-incubation: 30-90 min

Point of comparison: `Cc1sc2c(c1C)C(c1ccc(Cl)cc1)=NC(CC(N)=O)c1nnc(C)n1-2` (configuration not stated), OMR-Perf -0.0897. Against it:
- CC[N+]1(C)CCCC(OC(=O)C(O)(c2ccccc2)c2ccccc2)C1.[Br-] (configuration not stated) [Pipenzolate Bromide] — lower, -0.203
- O=C(O)C=CC(=O)O.O=C(O)C=CC(=O)O.c1ccc2nc(N3CCNCC3)ccc2c1 [Quipazine Maleate] — higher, 0.318
- CCN(CC)C(=O)c1ccc(C2=CC3(CCNCC3)Oc3cccc(O)c32)cc1.Cl — higher, 0.114
- CCC(COC(=O)c1cc(OC)c(OC)c(OC)c1)(c1ccccc1)N(C)C (configuration not stated) [Trimebutine] — lower, -0.672
- CC(=O)Nc1cc([As](=O)(O)O)ccc1O [Acetarsone] — lower, -0.498

tested on: Danio rerio larvae (5 dpf, TLF); assay: Prob-Test (SSMD vs DMSO vehicle); higher = higher than vehicle (e.g. higher dark-flash O-bend response probability, or better optomotor performance); conditions: 10 µM; pre-incubation: 30-90 min

Point of comparison: `CCN(CC)C(=O)c1ccc(C2=CC3(CCNCC3)Oc3cccc(O)c32)cc1.Cl`, Prob-Test -0.0907. Against it:
- Cc1cc(C(=O)CN2CCCC2)c(C)n1-c1ccc(F)cc1 — higher, 0.992
- CN(C)C(=O)Oc1ccc[n+](C)c1.[Br-] [Pyridostigmine Bromide] — higher, 0.193
- C/C(=C\c1csc(C)n1)[C@H]1C[C@@H]2O[C@]2(C)CCC[C@H](C)[C@H](O)[C@@H](C)C(=O)C(C)(C)[C@H](O)CC(=O)O1 [Epothilone B (EPO906, Patupilone)] — higher, 0.275
- COc1ccc(C(=O)N2CCCC2=O)cc1 [Aniracetam] — lower, -0.462
- O=P1(NCCCl)OCCCN1CCCl (configuration not stated) [Ifosfamide] — higher, 0.085
- O=C1CCC[C@@H]2[C@@H]3CCCN4CCC[C@H](CN12)[C@@H]34 [(+)-Matrine] — higher, 0.424
- NCCC(O)(P(=O)([O-])O)P(=O)([O-])O.[Na+].[Na+] [Pamidronate Disodium] — higher, -0.0636
- CN1CCc2cccc3c2C1Cc1ccc(O)c(O)c1-3.CN1CCc2cccc3c2C1Cc1ccc(O)cc1-3 (stereo not drawn) [R-(-)-Apomorphine HCl Hemihydrate] — lower, -0.885
- C[C@]12CC[C@H](O)C[C@@H]1CC[C@@H]1[C@H]2CC[C@]2(C)C(=O)CC[C@@H]12 [Epiandrosterone] — lower, -1.77
- CN1CCN(c2nc3ccccc3nc2Cl)CC1 — higher, 0.416
- Cc1cccc(Cc2c[nH]cn2)c1C.Cl [Detomidine HCl] — lower, -1.43
- Cc1cccc(C)c1NC(=O)CN1CCCC1=O [Nefiracetam] — lower, -0.331
- c1cc2c(cc1[C@H]1OC[C@H]3[C@H]1CO[C@@H]3c1ccc3c(c1)OCO3)OCO2 [Sesamin] — lower, -1.95
- C[C@H]1CCC/C=C/[C@@H]2C[C@H](O)C[C@H]2[C@H](O)/C=C/C(=O)O1 [Brefeldin A] — lower, -1.34
- CN1[C@@H]2C[C@@H](O)C[C@H]1[C@@H]1O[C@@H]12 [Scopine] — higher, -0.0666
- C=C1C[C@@H]2[C@@H](CC[C@@]3(C)C(=O)CC[C@@H]23)[C@@]2(C)C=CC(=O)C=C12 [Exemestane] — higher, -0.0258
- CCN(C)C(=O)Oc1cccc([C@H](C)N(C)C)c1.O=C(O)[C@H](O)[C@@H](O)C(=O)O [Rivastigmine Tartrate] — higher, -0.0749
- CC(=O)O[C@H]1C[C@@H]2CC[C@@H]3[C@@H](CC[C@]4(C)[C@H](OC(C)=O)[C@@H]([N+]5(C)CCCCC5)C[C@@H]34)[C@@]2(C)C[C@@H]1[N+]1(C)CCCCC1.[Br-].[Br-] [Pancuronium dibromide] — higher, 0.369
- C[C@@H]1C(=O)O[C@@H]2O[C@@]3(C)CC[C@H]4[C@@H](C)CC[C@@H]1[C@@]24OO3 [Artemisinin] — lower, -0.0968
- C[C@]12CC[C@H](O)CC1=CC[C@@H]1[C@H]2CC[C@]2(C)C(=O)CC[C@@H]12 [Dehydroepiandrosterone (DHEA)] — lower, -1.07
- CN(C)C(=O)C(CCN1CCC(O)(c2ccc(Cl)cc2)CC1)(c1ccccc1)c1ccccc1.Cl [Loperamide HCl] — lower, -0.86
- Cn1cc(C2=C(c3cn(C4CCN(Cc5ccccn5)CC4)c4ccccc34)C(=O)NC2=O)c2ccccc21 — higher, -0.0766
- C=CCN.Cl.ClCC1CO1 (configuration not stated) [Sevelamer HCl] — higher, -0.0469
- Cc1cccc([C@H](C)c2cnc[nH]2)c1C.Cl [Dexmedetomidine HCl (Precedex)] — lower, -1.61
- CCc1c(C(=O)C(N)=O)c2c(OCC(=O)O)cccc2n1Cc1ccccc1 — higher, -0.0785
- CNC(=O)Oc1ccc2c(c1)[C@]1(C)CCN(C)C1N2C.O=C(O)c1ccccc1O (some centres not stated) [Physostigmine Salicylate] — higher, -0.0698
- Cc1cccc(C)c1NC1=NCCCS1.Cl [Xylazine HCl] — lower, -0.831
- Cc1ccccc1-n1c(Cn2cnc3c(N)ncnc32)nc2cccc(C)c2c1=O — higher, 0.206
- CCC1(c2ccc(N)cc2)CCC(=O)NC1=O (configuration not stated) [Aminoglutethimide] — higher, 0.0606
- Cc1sc2c(c1C)C(c1ccc(Cl)cc1)=NC(CC(=O)Nc1ccc(O)cc1)c1nnc(C)n1-2 (configuration not stated) — lower, -0.286
- Cc1sc2c(c1C)C(c1ccc(Cl)cc1)=NC(CC(N)=O)c1nnc(C)n1-2 (configuration not stated) — higher, 0.577
- CC[N+]1(C)CCCC(OC(=O)C(O)(c2ccccc2)c2ccccc2)C1.[Br-] (configuration not stated) [Pipenzolate Bromide] — lower, -0.66
- O=C(O)C=CC(=O)O.O=C(O)C=CC(=O)O.c1ccc2nc(N3CCNCC3)ccc2c1 [Quipazine Maleate] — higher, 0.121
- CCC(COC(=O)c1cc(OC)c(OC)c(OC)c1)(c1ccccc1)N(C)C (configuration not stated) [Trimebutine] — lower, -0.346
- CC(=O)Nc1cc([As](=O)(O)O)ccc1O [Acetarsone] — higher, 0.422
